These are yes or no findings as the source states them, for the method shown. For some assays here: In cells and extracts the contact can be indirect. Some entries that bind do so weakly or less than the wild type.
T1: Human native C-reactive protein (CRP) (human), P02741
T1 chain: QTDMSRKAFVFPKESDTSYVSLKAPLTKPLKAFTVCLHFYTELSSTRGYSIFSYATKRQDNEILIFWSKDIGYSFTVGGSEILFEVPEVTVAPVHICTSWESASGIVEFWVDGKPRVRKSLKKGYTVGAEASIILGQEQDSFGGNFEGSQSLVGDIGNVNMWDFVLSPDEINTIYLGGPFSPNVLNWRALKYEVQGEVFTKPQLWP


Key:
[1] = biological target: T1, Human native C-reactive protein (CRP) …; test: SEC; Superdex G75; CRP 100 ug/ml in 8 M urea, 5 mM EDTA sampled at the indicated times; eluted with 8 M urea containing 2 mM Ca to stabilise the native pentameric state; both purified; settings: remark: other sources report otherwise
[2] = biological target: CRP Y40C/V117C mutant (human) (UniProt P02741); test: cross-linking; engineered inter-subunit disulfide bonds; conditioned media of COS-7 cells, immunoblotting with clone8 mAb, oligomer bands sensitive to reduction

| Binder | binding [1] | binding [2] |
| --- | --- | --- |
| Human native C-reactive protein (CRP), P02741 19-224 (protein) QTDMSRKAFVFPKESDTSYVSLKAPLTKPLKAFTVCLHFYTELSSTRGYSIFSYATKRQDNEILIFWSKDIGYSFTVGGSEILFEVPEVTVAPVHICTSWESASGIVEFWVDGKPRVRKSLKKGYTVGAEASIILGQEQDSFGGNFEGSQSLVGDIGNVNMWDFVLSPDEINTIYLGGPFSPNVLNWRALKYEVQGEVFTKPQLWP | binds | – |
| CRP Y40C/V117C mutant (protein, UniProt P02741 19-224) QTDMSRKAFVFPKESDTSYVSLKAPLTKPLKAFTVCLHFCTELSSTRGYSIFSYATKRQDNEILIFWSKDIGYSFTVGGSEILFEVPEVTVAPVHICTSWESASGIVEFWVDGKPRCRKSLKKGYTVGAEASIILGQEQDSFGGNFEGSQSLVGDIGNVNMWDFVLSPDEINTIYLGGPFSPNVLNWRALKYEVQGEVFTKPQLWP | – | binds |

From article PMC5784126
